Measured values as given in publication PMC7782846.
These are yes or no findings as the source states them, for the method shown. In cells and extracts the contact can be indirect. Here binding means that the protein was enriched with, or labelled near, the bait; the list need not be complete.

The chains behind the UniProt entries cited, without tags or fusion partners.
UniProt P09405: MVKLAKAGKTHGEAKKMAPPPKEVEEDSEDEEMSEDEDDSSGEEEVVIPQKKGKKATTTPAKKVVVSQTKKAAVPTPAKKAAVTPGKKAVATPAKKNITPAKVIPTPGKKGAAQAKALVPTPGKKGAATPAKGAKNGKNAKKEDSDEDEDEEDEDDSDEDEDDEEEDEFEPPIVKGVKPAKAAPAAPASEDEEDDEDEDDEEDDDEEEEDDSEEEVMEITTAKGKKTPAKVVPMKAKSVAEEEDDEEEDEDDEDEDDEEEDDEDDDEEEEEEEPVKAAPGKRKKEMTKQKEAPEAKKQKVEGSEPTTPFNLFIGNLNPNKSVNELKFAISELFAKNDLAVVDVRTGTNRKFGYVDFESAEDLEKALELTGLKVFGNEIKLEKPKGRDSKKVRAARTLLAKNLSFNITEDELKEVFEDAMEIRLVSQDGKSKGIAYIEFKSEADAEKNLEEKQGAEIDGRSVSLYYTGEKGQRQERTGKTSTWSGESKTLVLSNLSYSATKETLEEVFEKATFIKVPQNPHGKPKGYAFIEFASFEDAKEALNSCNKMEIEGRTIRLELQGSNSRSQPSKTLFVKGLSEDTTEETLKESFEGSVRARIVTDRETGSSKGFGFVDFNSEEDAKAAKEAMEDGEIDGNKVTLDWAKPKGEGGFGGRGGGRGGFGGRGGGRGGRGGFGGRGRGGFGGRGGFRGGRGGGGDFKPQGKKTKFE
UniProt Q64310: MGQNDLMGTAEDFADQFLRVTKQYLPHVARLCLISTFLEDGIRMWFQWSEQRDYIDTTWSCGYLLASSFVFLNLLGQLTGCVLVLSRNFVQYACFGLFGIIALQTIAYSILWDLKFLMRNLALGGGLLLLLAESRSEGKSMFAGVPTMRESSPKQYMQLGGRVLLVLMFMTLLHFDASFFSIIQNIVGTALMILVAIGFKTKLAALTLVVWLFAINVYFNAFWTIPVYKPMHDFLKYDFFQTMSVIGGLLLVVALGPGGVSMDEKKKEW

Biological target: T1, STING (bait of the mass spectrometry of STING-binding proteins) (UniProt Q3TBT3)
T1 sequence: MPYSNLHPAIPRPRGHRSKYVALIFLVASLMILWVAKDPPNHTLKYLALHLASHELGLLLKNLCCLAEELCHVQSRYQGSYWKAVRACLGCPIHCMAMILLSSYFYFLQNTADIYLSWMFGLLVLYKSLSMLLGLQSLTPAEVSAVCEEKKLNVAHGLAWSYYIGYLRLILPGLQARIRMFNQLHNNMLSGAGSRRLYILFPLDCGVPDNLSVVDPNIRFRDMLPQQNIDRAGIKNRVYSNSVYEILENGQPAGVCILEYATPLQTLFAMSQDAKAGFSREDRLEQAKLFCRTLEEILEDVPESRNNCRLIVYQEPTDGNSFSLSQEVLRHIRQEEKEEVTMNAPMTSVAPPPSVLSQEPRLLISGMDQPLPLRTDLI
Assay: affinity purification with mass spectrometry; lysate (1% Triton X-100, 150 mM NaCl, pH 7.2) on anti-FLAG M2 Affinity Gel overnight at 4 °C, FLAG peptide elution, tryptic digest, LC-MS/MS

binding	Substance
binds	Ncl (from UniProt P09405 1-707)
binds	Surf4 (endogenous, hit of the mass spectrometry) (from UniProt Q64310 1-269)
